# PubChem BioAssay AID2685 (National Center for Advancing Translational Sciences (NCATS), 2010)
# About 2,100 (0.66%) of roughly 320,000 compounds were called active. The inconclusive results got no clear call from the source; some entries with a clear call stand among them for comparison. Calls come from the whole dose curve; as a rule, active = well fitted inhibition curve with a large enough effect in the signal ratio, with a control signal flat (not every such curve was filed as active); inconclusive = small, poorly fitted or top-dose-only effect, or effect the other way, or a change in a side signal; inactive = flat fitted curve, though single readings scatter; the % refers to the signal ratio. Where the call is inconclusive, the potency comes from a doubtful curve fit.
# Test: qHTS Assay for Lipid Storage Modulators in Drosophila S3 Cells
# Conditions: BODIPY lipid droplet fluorescence, 18-24 h, cells fed with added oleic acid; lipid storage change, negative = inhibition: at 46.1 µM (top of the series) unless noted
# How it was run: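 Drosophila S3 cells got compounds at several concentrations plus oleic acid (400 uM solution). Laser-scanning cytometry with 488 nm excitation read lipid droplets at 500-530 nm and cells at 575-640 nm. Percent activity was relative to 20 uM Triacsin C.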
# % is set by controls: 0 for no effect and ±100 for the full control effect; potency is the fitted concentration of half-maximal effect.
Compound,"lipid storage change, negative = inhibition",Potency
CCCc1nc(SCC(=O)N2CCC(Cc3ccccc3)CC2)c2c(=O)n(C)c(=O)n(C)c2n1,inconclusive: -17.2%,
C/C(=N\NC(=O)CCC(=O)Nc1ccc(C)c(C)c1)C1CC1,,active: 6510 nM
COCCNC(=S)Nc1cc(OC)c(OC)cc1C#N,,"inconclusive: 82 nM [falling, full curve, poor fit]"
CCC(=O)N1N=C(c2ccc(NS(C)(=O)=O)cc2)CC1c1ccc(C)cc1 (stereo unspecified),,"inconclusive: 731 nM [activator, full curve]"
COC(=O)C(C)Sc1nnc(Cc2cc(=O)[nH]c(=O)[nH]2)n1-c1cc(C)ccc1C (stereo unspecified),,"inconclusive: 146 nM [falling, single point]"
Cc1ccc(S(=O)(=O)NCCCN(C)C)cc1,inconclusive: -2.85%,
CCSc1cc(N2CC(C)OC(C)C2)nc(-c2ccccc2Cl)n1 (stereo unspecified),inconclusive: 178%,
N#Cc1c(-c2ccc(Cl)cc2Cl)nc2n(c1=O)CCS2,,"inconclusive: 5800 nM [falling, single point]"
CC(/C=N/NC(=O)CSc1nnc(SCc2ccccc2)s1)=C\c1ccco1,,"inconclusive: 580 nM [falling, single point]"
Cc1ccc(-n2[nH]c(C)c(C=NC34CN5CN(CN(C5)C3)C4)c2=O)cc1C,inconclusive: 14.7%,
COc1cc(C)ccc1OCc1cc(C(=O)NCc2ccncc2)no1,inconclusive: 1.78%,
Cc1ccc(C(=O)Nc2nnc(S(=O)(=O)N3CCC(C)CC3)s2)cc1,,"inconclusive: 20600 nM [activator, single point]"
COc1cc(OC)c(C(=O)OCC(=O)Nc2cc(C)on2)cc1OC,inconclusive: -3.62%,
Cc1ccc(C2CC(=O)Nc3cc4c(cc32)OCO4)o1 (stereo unspecified),,"inconclusive: 82 nM [rising, full curve, poor fit]"
CCOC(=O)C1CCCN(C(=O)CN2CCN(Cc3ccc(Cl)cc3)C2=O)C1 (stereo unspecified),inconclusive: -28%,
COc1ccc2nc(C)cc(N3CCN(c4ccccc4)CC3)c2c1,inconclusive: -38.1%,
COc1ccc(CCNC(=O)CSc2nc3[nH]ncc3c(=O)[nH]2)cc1OC,,"inconclusive: 6510 nM [falling, partial curve, poor fit]"
COc1cnn(-c2ccc(Br)cc2)c(=O)c1SCc1ccccc1,inconclusive: -39.3%,
COc1ccc(/C=C2/SC(=O)N(CCNC(=O)C3COc4ccccc4O3)C2=O)cc1 (stereo unspecified),inactive: 7.79%,
COc1ccc(NC(=O)[C@@H]2CCCN2S(=O)(=O)c2cccc3cccnc23)cc1,inconclusive: -29.3%,
COc1ccc(CCNC(=O)C2CCN(C(=O)c3ccc(Cl)cc3)CC2)cc1OC,inconclusive: 4.6%,
O=P(O)(CP(=O)(c1ccccc1)c1ccccc1)c1ccccc1,inconclusive: 6.64%,
Cc1n[nH]c(C)c1S(=O)(=O)N(CC(=O)N1CCc2ccccc21)c1ccc(C(C)C)cc1,inconclusive: -53.6%,
Cc1ccc(S(=O)(=O)NC(=NCC(=O)O)c2ccc(F)cc2)cc1,,"inconclusive: 5.2 nM [falling, full curve, poor fit]"
O=C(C1COc2ccccc2O1)N1CCN(c2ccc(F)cc2)CC1 (stereo unspecified),inconclusive: -10.2%,
CCN(CCCNC(=O)CCc1nc(-c2ccc(OC)cc2)no1)c1cccc(C)c1,inconclusive: -4.96%,

Compound,"lipid storage change, negative = inhibition",Potency
COC(C(=O)NCc1ccccc1C)c1ccccc1 (stereo unspecified),,"inconclusive: 29100 nM [rising, single point]"
CC(=O)NCc1ccc(C(=O)O)cc1,inconclusive: -14.7%,
CN(C)CCCN(C(=O)c1ccc(N2C(=O)CCC2=O)cc1)c1nc2c(F)cccc2s1,inconclusive: -38%,
COc1ccc(C2=NN(c3ccc(C(=O)O)cc3)C(c3ccc(OC)c(OC)c3)C2)cc1 (stereo unspecified),inconclusive: 27.7%,
COc1ccc(N2CCN(C(=O)c3ccc(-c4nc5ccccc5s4)o3)CC2)cc1,,"inconclusive: 3260 nM [activator, full curve]"
CCOC(=O)C1=C(C)NC(=O)NC1c1ccc(Cl)cc1Cl (stereo unspecified),,"inconclusive: 461 nM [falling, full curve]"
CC(C)N1C(=O)S/C(=C/c2ccc(Sc3nc4ccccc4[nH]3)o2)C1=O,,"inconclusive: 29100 nM [falling, single point]"
O=C(c1cccs1)N1CC=C(c2ccccc2)CC1,inconclusive: -5.42%,
O=C(COC(=O)Cc1ccsc1)Nc1ccc(F)cc1Cl,inconclusive: -8.18%,
COc1cc(/C=C/C(=O)O)cc(S(=O)(=O)N(CC(C)C)CC(C)C)c1OC,,"inconclusive: 517 nM [falling, single point]"
Cc1n[nH]c(C)c1S(=O)(=O)N1CCCC(C(=O)Nc2nccs2)C1 (stereo unspecified),inconclusive: 57.5%,
CS(=O)(=O)N1Cc2ccccc2CC1C(=O)OCC(=O)Nc1ccc2ccccc2c1 (stereo unspecified),,"inconclusive: 6510 nM [rising, single point]"
Cc1ccc(CC(=O)Nc2cc(C)ccn2)cc1,inconclusive: 79.8%,
O=C(c1ccc(Cl)cc1)C1C2C(=O)N(c3ccccc3)C(=O)C2C2CCCN21 (stereo unspecified),,"inconclusive: 6510 nM [rising, single point]"
CCCC1C2C(=O)N(c3ccccc3OC)C(=O)C2ON1c1ccccc1 (stereo unspecified),inconclusive: -37.7%,
O=C(COc1coc(CN2CCc3ccccc32)cc1=O)Nc1cccc(F)c1,inconclusive: -40.3% [at 0.0737 µM],
O=[N+]([O-])c1cc(C(F)(F)F)ccc1NCCOc1ccccc1,,"inconclusive: 9200 nM [activator, single point]"
N#Cc1nc(-c2cccs2)oc1NCc1ccccc1,inconclusive: 11.2%,
COc1cccc(CNC(=O)Cc2ccc(-n3c(=O)[nH]c4ccccc4c3=O)cc2)c1,inconclusive: 62.3%,
O=[N+]([O-])c1ccc(Oc2cnc3ccccc3n2)cc1,inconclusive: 26.2%,
C=CC[N+](C)(C)C/C(Cl)=C(\Cl)c1ccccc1,,"inconclusive: 130 nM [falling, full curve, poor fit]"
CN(C)c1ccc(/C=C(\C#N)C(=O)NCc2ccco2)cc1,,"inconclusive: 14600 nM [falling, partial curve, poor fit]"
CCOC(=O)C1CCN(C(=O)C2(NC(=O)Nc3ccccc3Cl)CCCCC2)CC1,,"inconclusive: 1460 nM [cytotoxic, full curve]"
COc1ccc(/C=C/C=C2\NC(=S)NC2=O)cc1,inconclusive: -11.6%,
CC(C)n1c(SCC(=O)N2CCCC2)nc2c1c(=O)n(C)c(=O)n2C,inconclusive: 27.8%,
Cc1cc(C(=O)OCC(=O)N2CCc3ccccc32)c(C)o1,inconclusive: -7.17%,

Compound,"lipid storage change, negative = inhibition",Potency
COCCCNCCCCOc1ccc(C)cc1[N+](=O)[O-],inconclusive: -1.27%,
Cc1ccc(Cl)cc1S(=O)(=O)N1CCC(C(=O)NC2CCN(Cc3ccccc3)CC2)CC1,inconclusive: -2.01%,
O=C(NC1CC1)c1cc(Cl)nc2ccccc12,inconclusive: 15.9%,
CCOC(=O)[C@H]1[C@H]2COc3cc(OC)ccc3[C@@H]2N2C(=O)CN(Cc3ccc(C)cc3)C(=O)[C@@]12C,inconclusive: -13.7%,
COc1ccc(N2C(=O)CSC2c2cccc(F)c2)c(OC)c1 (stereo unspecified),inconclusive: -16.9%,
COc1ccc(CCNS(=O)(=O)c2cccc(S(=O)(=O)N3CCCC3)c2)cc1OC,inconclusive: 14.1%,
COc1cccc(OC)c1OCC(O)CN1CCN(c2ccccc2)CC1 (stereo unspecified),inconclusive: 13.5%,
CCOc1ccc(-c2nnc3ccc(SCC(=O)NCc4ccco4)nn23)cc1,inconclusive: -52.7%,
CCC(C)C(NC(=O)CCC(=O)OCC(=O)[C@@]1(O)CCC2[C@@H]3CCC4=CC(=O)C=C[C@]4(C)C3[C@@H](O)C[C@@]21C)C(=O)O (stereo partly specified),,"inconclusive: 651 nM [falling, single point]"
O=C(Nc1cc(Cl)ccc1Cl)C1CC(=O)N(c2ccccc2)C1 (stereo unspecified),inconclusive: 10.6% [at 9.22 µM],
CC[n+]1c(C)cc(C)n1-c1ccccc1,inconclusive: 2.03%,
S=C(NCCN1CCOCC1)N1CCN(c2cccc(Cl)c2)CC1,inconclusive: -4.52%,
Cc1cc(C)c(C(=O)COC(=O)c2cc([N+](=O)[O-])ccc2NCCO)cc1C,inconclusive: -16.2%,
O=C(Nc1ccon1)c1ccccc1Cl,inconclusive: -3.25%,
O=C(NCc1ccccc1)c1cnc(Cl)c(Cl)c1,,"inconclusive: 29100 nM [falling, single point]"
CN1CC(=O)N(CC(=O)Nc2ccc(SC(F)F)cc2)C1=O,inconclusive: -89%,
Cn1c(=O)oc2cc(S(=O)(=O)Nc3ccccc3O)ccc21,inconclusive: -24.7%,
Cc1ccc(-n2c(C)nn(CC3CC3)c2=O)cc1,inconclusive: -10.3%,
CN(Cc1ccccc1)C(=O)CN1CCN(C(c2ccccc2)c2ccccc2)CC1,inconclusive: -38.2% [cytotoxic] [at 0.00295 µM],
O=C(CCc1ccccc1)N1CCN(S(=O)(=O)c2cccs2)CC1,inconclusive: 2.69%,
CCOC(=O)C(=NC(C)(C)C)NNc1cc(Cl)ccc1Cl,inconclusive: 41.5%,
CCN(CC)C(=O)c1n[nH]c(=O)c2ccccc12,,"inconclusive: 29.1 nM [falling, full curve, poor fit]"
Cc1nc2ccccc2c2c1C(=O)N(c1ccc(C(=O)O)cc1)C2=O,inconclusive: -49.3%,
Cc1csc(NC(=O)C2CCCN2C(=O)OCC(C)C)n1 (stereo unspecified),,"inconclusive: 291 nM [activator, full curve, poor fit]"

# Structural class: those above containing a COOH group
Compound,"lipid storage change, negative = inhibition",Potency
Cc1ccc(S(=O)(=O)NC(=NCC(=O)O)c2ccc(F)cc2)cc1,,"inconclusive: 5.2 nM [falling, full curve, poor fit]"
CC(=O)NCc1ccc(C(=O)O)cc1,inconclusive: -14.7%,
COc1ccc(C2=NN(c3ccc(C(=O)O)cc3)C(c3ccc(OC)c(OC)c3)C2)cc1 (stereo unspecified),inconclusive: 27.7%,
COc1cc(/C=C/C(=O)O)cc(S(=O)(=O)N(CC(C)C)CC(C)C)c1OC,,"inconclusive: 517 nM [falling, single point]"
CCC(C)C(NC(=O)CCC(=O)OCC(=O)[C@@]1(O)CCC2[C@@H]3CCC4=CC(=O)C=C[C@]4(C)C3[C@@H](O)C[C@@]21C)C(=O)O (stereo partly specified),,"inconclusive: 651 nM [falling, single point]"
Cc1nc2ccccc2c2c1C(=O)N(c1ccc(C(=O)O)cc1)C2=O,inconclusive: -49.3%,
